Test results taken from paper PMC5779225.
These are yes or no findings as the source states them, for the method shown. Binding seen in cells or lysates may run through a third protein. Some results given as binding are weak or reduced against the parent protein; the word gives no strength. Where a sequence is shown, tags or fusion partners need not be part of it.

Columns and labels:
[1] = target: T1, Frizzled3 (Fzd3)-HA (mouse) (UniProt Q61086); experiment: co-IP; HEK293T cells lysed 48 hr after transfection in IP buffer (20 mM Tris HCl pH 7.5, 150 mM NaCl, 1 mM EGTA, 0.1% TX-100); immunoprecipitated with anti-HA or anti-Myc antibodies and protein A/G agarose; immunoblot
T1 sequence: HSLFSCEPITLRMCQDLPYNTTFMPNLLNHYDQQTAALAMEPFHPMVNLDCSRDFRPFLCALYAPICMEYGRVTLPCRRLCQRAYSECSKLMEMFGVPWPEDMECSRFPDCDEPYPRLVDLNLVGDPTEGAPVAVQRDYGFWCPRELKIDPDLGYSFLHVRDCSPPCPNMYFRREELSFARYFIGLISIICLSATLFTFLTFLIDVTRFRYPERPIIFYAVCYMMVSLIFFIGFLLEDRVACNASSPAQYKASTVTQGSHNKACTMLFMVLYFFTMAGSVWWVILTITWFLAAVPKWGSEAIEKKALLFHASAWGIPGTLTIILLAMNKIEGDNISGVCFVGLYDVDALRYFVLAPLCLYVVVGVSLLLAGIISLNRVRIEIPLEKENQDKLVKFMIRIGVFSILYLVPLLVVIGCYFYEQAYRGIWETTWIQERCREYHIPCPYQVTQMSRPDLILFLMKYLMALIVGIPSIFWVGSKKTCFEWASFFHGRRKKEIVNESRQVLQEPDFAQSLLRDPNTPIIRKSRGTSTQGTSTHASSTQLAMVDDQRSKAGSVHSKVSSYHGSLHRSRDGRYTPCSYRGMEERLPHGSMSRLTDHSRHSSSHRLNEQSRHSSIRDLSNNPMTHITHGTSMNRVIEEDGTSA

Shisa2-MycHis (mouse) = target: T2, Shisa2-MycHis (mouse) (UniProt Q8QZV2); experiment: as above
T2 sequence: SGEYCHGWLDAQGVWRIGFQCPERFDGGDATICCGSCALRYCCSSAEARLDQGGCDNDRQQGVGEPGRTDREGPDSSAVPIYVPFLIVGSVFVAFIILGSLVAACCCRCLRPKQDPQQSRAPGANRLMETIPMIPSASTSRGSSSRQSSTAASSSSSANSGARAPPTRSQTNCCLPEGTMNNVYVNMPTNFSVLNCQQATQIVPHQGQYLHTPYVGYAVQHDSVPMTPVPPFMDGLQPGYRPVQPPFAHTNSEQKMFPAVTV

B1: Shisa2-MycHis (protein, UniProt Q8QZV2 34-295)
chain: T2 sequence
binding [1]: binds

B2: Frizzled3 (Fzd3)-HA (receptor, UniProt Q61086 23-666)
chain: T1 sequence
binding (Shisa2-MycHis (mouse)): binds
